The results in this text go back to article PMC6303017, “Effects of RNA structure and salt concentration on the affinity and kinetics of interactions between pentatricopeptide repeat proteins and their RNA ligands”.

Construct, isoform or probe ends are uncertain for at least one entry. No signal at the amounts used counts as a negative. At least one verdict rests on a figure or table, not on a statement of the authors. Tags and fusion partners may be left off the protein sequences shown. For some assays here: The comparison behind a weaker result is the experiment's own reference, which may not be listed here.

One data set addresses T1, PPR10 (UniProt B8Y6I0).
T1 sequence (looked up, limits assumed): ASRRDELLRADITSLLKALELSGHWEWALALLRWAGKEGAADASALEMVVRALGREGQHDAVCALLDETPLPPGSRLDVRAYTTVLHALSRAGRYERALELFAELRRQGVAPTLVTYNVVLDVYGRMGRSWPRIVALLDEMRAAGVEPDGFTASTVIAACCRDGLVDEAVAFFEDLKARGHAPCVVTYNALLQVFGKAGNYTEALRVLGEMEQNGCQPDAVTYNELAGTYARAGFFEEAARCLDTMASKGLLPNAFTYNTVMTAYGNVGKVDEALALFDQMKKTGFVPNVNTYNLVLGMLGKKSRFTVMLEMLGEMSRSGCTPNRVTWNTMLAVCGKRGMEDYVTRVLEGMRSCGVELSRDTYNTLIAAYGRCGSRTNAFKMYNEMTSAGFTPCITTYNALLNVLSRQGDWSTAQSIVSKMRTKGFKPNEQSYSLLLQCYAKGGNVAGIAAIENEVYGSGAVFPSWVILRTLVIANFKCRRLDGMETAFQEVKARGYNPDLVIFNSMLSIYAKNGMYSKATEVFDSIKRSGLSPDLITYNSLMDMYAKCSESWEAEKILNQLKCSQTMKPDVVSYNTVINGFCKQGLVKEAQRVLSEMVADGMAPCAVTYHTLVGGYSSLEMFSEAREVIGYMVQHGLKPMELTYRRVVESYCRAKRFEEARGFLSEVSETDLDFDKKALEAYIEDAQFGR
Put plainly: SPR. The settings on record: SPR: 100 mM HEPES pH 7.5, 150 mM NaCl, 3 mM EDTA, 1 mM 2-mercaptoethanol, 0.005% P20, recombinant protein, protein details: MBP fusion, MBP cleaved off, 6-carbon linker.

In a further data set the target is T2, HCF152 (UniProt Q9SF38).
T2 sequence (looked up, limits assumed): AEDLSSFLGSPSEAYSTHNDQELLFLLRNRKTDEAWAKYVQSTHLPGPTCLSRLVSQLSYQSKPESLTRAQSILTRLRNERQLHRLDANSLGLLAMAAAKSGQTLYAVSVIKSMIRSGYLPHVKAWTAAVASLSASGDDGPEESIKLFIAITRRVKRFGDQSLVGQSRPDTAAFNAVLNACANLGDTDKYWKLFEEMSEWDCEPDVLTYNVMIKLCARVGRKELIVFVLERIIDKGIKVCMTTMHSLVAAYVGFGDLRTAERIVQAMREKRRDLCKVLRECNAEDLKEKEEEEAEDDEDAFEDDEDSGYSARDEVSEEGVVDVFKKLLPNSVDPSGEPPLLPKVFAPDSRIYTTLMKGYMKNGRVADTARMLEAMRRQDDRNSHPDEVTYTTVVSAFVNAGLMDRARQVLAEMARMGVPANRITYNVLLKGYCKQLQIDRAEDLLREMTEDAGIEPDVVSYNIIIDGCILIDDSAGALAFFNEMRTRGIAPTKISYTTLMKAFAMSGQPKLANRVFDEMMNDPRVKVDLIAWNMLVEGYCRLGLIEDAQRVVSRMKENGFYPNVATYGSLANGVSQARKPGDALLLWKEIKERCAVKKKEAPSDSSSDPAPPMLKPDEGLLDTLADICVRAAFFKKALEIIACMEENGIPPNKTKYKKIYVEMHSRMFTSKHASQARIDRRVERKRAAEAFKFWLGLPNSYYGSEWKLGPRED
Put plainly: SPR. The settings on record: specificity negative control; SPR: 100 mM HEPES pH 7.5, 150 mM NaCl, 3 mM EDTA, 1 mM 2-mercaptoethanol, 0.005% P20; recombinant protein; protein details: MBP fusion, MBP cleaved off; label: 3' biotin, 6-carbon linker.

For UGGUAGUUCGACGUGGAUUUU [petB SPR RNA], the binding result with PPR10 (specificity negative control, label: 3' biotin) was “no binding”. For “GAUUGUAUCCUUAACCAUUUCUUUU [atpH SPR RNA]”, the binding result with HCF152 is given as “no binding”; with PPR10 (300 mM NaCl vs 75 mM: on-rate ~100-fold lower, off-rate ~4-fold higher, label: 3' biotin) it was “binds more weakly”.

“ACAAUGUUUUUUAUUGUAUCCUUAACCAUUUCUUU [5'-6bp SPR RNA]”: in the data set with PPR10 (150 mM NaCl, on-rate lower and off-rate higher several fold, label: 3' biotin), the binding result is recorded as “binds more weakly”. Turning to “AUUGUAUCCUUAACCAUUUCUUUUUUUUUGAAAGA [3'-6bp SPR RNA]”, the binding result with PPR10 (150 mM NaCl, RNA tethered at 5' end, label: 5' biotin) is listed as “binds more weakly”.
